Not every detail of the peptide structures is certain; ends, links or a residue may be inferred. Residues, ends and D or L forms follow the SMILES beside them.
Test system: wild-type or mutant RRE IIB RNA hairpins
Assay: RNA-binding gel shift assay of synthetic peptides
Design: species or system HIV
Settings: 4° C., 1-5 nM radiolabelled RNA, wild-type versus mutant RRE IIB (FIG. 4A)

Structure (SMILES) | in vitro binding affinity and specificity for the RRE (gel shift)
C[C@H](NC(=O)[C@H](C)NC(=O)[C@H](C)NC(=O)[C@H](C)NC(=O)[C@H](CCCNC(=N)N)NC(=O)[C@H](CCCNC(=N)N)NC(=O)[C@H](CCCNC(=N)N)NC(=O)[C@H](CCCNC(=N)N)NC(=O)[C@H](CCCNC(=N)N)NC(=O)[C@H](CCCNC(=N)N)NC(=O)[C@H](Cc1c[nH]cn1)NC(=O)[C@H](CCCNC(=N)N)NC(=O)[C@H](CCCNC(=N)N)NC(=O)[C@H](CCCNC(=N)N)NC(=O)[C@H](CCCNC(=N)N)NC(=O)[C@H](CCCNC(=N)N)NC(=O)[C@H](Cc1c[nH]cn1)NC(=O)[C@H](CC(N)=O)NC(=O)CCC(=O)O)C(N)=O [clone 41 peptide] (HELM PEPTIDE1{[O=C(O)CCC(=O)[*:2]].N.H.R.R.R.R.R.H.R.R.R.R.R.R.A.A.A.A.[am]}$$$$V2.0) | only a very slight preference for the RRE
C[C@H](NC(=O)[C@H](C)NC(=O)[C@H](C)NC(=O)[C@H](C)NC(=O)[C@H](CCCNC(=N)N)NC(=O)[C@H](CCCNC(=N)N)NC(=O)[C@H](CCCNC(=N)N)NC(=O)[C@H](CCCNC(=N)N)NC(=O)[C@H](CCCNC(=N)N)NC(=O)[C@H](CCCNC(=N)N)NC(=O)[C@H](CCC(N)=O)NC(=O)[C@H](CCCNC(=N)N)NC(=O)[C@H](CCCNC(=N)N)NC(=O)[C@H](CCCNC(=N)N)NC(=O)[C@H](CCCNC(=N)N)NC(=O)[C@H](CCCNC(=N)N)NC(=O)[C@H](Cc1c[nH]cn1)NC(=O)[C@H](CC(N)=O)NC(=O)CCC(=O)O)C(N)=O [clone 57 peptide] (HELM PEPTIDE1{[O=C(O)CCC(=O)[*:2]].N.H.R.R.R.R.R.Q.R.R.R.R.R.R.A.A.A.A.[am]}$$$$V2.0) | moderate preference for the RRE
